Consider two compounds from US8318707B2 (priority 2006, dated 2012).

The experiment concerns mixed neural culture of hippocampus cells exposed to kainate. As to the kind of experiment: cells. The format is cell-based, rat. The settings on record: read-out: neuroprotection concentration (CN50).

Where two headings read alike, the source gives them in different places.

For `CC[C@H](CO)Nc1nc(NCc2ccccc2)c2ncn(C(C)C)c2n1` [(R)-roscovitine], the EC50 was 650 nM.

For the compound `CC[C@@H](CO)Nc1nc(NCc2ccccc2)c2ncn(C(C)C)c2n1` [(S)-roscovitine], the EC50 (Rattus norvegicus) came out at 190 nM.
